Assay results: the supplement of paper PMC10849652
The other results are listed elsewhere or left out.

Amino acid sequences for entries named in this document (tags omitted). A change or cut given only in a name is not applied to a line headed by its entry.
UniProt O95573: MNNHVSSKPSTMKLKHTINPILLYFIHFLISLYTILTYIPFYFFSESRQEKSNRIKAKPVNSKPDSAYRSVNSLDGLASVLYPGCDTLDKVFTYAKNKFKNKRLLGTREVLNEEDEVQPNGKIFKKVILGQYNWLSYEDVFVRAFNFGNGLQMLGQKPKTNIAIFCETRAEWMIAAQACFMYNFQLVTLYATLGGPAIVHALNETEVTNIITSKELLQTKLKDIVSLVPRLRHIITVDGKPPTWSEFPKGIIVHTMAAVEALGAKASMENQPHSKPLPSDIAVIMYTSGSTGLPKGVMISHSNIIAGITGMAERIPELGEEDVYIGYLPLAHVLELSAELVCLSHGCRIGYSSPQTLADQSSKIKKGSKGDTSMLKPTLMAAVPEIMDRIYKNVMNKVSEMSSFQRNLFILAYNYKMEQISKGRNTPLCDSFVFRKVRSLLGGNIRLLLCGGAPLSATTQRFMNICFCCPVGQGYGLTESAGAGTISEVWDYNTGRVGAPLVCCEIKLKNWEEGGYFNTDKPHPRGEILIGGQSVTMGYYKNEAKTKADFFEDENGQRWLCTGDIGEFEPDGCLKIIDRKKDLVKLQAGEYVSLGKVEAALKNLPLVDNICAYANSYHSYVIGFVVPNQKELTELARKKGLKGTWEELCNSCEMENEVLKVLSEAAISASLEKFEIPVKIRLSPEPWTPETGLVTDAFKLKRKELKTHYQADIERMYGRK
UniProt O14639: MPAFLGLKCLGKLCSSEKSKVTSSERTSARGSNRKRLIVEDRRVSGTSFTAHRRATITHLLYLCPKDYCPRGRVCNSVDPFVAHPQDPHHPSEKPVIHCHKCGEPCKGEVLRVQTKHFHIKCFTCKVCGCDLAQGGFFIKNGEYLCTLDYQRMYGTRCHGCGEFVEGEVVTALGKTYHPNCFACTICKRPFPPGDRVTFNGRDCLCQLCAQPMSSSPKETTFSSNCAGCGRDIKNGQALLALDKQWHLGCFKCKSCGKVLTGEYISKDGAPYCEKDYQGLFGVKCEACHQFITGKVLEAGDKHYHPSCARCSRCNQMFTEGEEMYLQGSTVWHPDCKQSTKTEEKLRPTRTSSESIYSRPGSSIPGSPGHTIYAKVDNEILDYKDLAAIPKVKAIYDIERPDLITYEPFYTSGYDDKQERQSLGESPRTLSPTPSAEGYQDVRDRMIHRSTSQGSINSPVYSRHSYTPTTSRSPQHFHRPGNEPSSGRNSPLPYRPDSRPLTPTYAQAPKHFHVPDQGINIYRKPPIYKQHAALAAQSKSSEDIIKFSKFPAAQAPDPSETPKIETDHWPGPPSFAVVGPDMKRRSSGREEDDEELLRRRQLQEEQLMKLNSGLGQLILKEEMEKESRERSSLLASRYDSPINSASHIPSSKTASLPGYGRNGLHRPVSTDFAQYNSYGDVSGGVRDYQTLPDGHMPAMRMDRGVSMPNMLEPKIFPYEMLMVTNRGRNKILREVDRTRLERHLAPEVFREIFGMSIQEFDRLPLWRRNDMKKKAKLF
UniProt Q9BTE6: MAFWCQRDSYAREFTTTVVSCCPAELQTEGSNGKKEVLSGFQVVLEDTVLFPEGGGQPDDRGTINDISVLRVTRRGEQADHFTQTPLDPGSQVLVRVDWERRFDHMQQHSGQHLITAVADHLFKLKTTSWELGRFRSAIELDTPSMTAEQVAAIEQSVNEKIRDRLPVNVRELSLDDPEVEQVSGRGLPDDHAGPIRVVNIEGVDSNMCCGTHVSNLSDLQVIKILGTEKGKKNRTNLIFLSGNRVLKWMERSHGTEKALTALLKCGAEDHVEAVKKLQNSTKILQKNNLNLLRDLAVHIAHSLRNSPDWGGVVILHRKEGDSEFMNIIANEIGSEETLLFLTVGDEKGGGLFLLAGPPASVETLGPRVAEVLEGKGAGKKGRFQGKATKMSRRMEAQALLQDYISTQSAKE
UniProt Q8NE71: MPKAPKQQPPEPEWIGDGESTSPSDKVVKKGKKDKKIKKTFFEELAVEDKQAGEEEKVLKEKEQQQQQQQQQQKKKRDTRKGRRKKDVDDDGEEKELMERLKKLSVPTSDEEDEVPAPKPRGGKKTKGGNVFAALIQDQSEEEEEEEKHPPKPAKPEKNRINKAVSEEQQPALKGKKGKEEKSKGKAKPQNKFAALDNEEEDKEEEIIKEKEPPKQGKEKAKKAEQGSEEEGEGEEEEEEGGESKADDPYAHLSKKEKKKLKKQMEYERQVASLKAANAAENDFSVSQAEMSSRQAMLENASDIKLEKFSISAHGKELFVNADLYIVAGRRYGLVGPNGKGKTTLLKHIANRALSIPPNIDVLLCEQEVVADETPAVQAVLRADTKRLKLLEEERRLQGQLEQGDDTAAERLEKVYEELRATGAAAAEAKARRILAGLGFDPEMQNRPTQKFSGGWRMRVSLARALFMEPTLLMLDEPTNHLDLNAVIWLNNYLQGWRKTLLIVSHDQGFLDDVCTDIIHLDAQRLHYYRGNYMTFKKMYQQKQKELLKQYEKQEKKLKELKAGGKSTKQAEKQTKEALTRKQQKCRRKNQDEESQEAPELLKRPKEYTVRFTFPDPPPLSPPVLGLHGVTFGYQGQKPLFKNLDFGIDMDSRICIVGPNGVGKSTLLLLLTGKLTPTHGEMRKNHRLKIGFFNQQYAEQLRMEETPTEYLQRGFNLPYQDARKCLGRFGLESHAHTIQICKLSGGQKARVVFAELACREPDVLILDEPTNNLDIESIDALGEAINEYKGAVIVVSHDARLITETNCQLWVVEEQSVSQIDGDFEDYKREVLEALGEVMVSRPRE
UniProt O14678: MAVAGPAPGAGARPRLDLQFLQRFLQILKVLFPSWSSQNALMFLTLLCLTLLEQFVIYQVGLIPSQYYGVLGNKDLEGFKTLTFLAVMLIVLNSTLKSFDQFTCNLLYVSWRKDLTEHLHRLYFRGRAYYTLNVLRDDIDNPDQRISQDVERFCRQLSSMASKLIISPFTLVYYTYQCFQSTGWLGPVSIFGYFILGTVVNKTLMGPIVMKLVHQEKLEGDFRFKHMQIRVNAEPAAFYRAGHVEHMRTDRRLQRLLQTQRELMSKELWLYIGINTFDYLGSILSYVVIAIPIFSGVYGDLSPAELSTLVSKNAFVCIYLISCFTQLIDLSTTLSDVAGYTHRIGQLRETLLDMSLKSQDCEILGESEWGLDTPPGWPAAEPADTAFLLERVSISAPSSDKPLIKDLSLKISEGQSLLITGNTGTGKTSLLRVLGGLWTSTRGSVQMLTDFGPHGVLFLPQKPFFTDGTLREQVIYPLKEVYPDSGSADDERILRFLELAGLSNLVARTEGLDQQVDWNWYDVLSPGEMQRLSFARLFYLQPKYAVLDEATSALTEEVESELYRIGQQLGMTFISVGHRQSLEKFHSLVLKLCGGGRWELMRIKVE
UniProt P11310: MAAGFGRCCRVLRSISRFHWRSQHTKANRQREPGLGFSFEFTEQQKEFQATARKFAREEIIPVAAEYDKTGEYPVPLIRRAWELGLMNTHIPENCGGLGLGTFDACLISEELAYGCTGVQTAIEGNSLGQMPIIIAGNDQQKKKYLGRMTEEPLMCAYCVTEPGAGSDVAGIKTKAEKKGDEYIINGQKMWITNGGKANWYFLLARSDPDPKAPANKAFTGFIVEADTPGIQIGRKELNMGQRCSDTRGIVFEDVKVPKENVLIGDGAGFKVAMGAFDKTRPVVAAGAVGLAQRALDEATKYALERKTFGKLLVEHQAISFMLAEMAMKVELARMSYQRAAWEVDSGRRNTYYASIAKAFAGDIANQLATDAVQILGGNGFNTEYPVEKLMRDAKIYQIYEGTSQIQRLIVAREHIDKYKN
UniProt Q9H568: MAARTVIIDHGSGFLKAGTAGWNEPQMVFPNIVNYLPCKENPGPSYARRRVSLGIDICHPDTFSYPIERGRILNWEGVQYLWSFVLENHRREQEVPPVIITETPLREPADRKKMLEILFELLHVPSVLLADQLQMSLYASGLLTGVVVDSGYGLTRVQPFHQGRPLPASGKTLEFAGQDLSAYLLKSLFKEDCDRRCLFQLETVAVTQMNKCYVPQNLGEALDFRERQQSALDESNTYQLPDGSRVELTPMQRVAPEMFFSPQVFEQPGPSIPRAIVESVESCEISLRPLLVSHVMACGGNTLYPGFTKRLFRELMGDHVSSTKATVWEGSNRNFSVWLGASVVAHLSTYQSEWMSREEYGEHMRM
UniProt P33897: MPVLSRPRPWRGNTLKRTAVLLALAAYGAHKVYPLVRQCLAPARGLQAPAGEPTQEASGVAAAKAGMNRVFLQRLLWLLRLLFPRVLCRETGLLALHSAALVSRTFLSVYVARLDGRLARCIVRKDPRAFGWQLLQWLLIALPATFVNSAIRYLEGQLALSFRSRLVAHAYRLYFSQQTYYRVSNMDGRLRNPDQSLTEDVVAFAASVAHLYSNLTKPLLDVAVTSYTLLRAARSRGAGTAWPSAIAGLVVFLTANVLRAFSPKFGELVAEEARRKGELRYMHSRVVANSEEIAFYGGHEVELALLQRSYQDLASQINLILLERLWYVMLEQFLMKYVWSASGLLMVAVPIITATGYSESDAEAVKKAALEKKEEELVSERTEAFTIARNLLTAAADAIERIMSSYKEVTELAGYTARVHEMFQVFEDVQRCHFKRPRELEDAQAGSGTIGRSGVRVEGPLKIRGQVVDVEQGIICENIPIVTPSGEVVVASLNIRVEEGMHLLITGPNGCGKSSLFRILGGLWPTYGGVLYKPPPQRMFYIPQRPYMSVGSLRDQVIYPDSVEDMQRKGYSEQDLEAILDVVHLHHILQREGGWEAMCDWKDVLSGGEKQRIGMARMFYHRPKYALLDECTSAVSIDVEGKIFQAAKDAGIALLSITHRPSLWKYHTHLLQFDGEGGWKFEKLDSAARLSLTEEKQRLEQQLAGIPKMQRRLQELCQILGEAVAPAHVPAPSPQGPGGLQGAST
UniProt P24752: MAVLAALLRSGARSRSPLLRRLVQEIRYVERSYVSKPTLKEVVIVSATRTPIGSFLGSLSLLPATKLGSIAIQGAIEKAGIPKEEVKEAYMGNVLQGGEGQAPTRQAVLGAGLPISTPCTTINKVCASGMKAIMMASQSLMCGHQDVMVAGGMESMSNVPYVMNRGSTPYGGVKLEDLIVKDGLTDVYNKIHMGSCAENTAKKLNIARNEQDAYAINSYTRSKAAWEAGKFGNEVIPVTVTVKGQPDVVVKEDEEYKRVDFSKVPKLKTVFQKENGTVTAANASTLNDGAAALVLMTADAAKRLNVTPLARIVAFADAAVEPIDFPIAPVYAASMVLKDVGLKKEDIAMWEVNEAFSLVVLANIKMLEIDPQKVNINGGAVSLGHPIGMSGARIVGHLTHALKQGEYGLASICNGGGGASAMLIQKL
UniProt Q03154: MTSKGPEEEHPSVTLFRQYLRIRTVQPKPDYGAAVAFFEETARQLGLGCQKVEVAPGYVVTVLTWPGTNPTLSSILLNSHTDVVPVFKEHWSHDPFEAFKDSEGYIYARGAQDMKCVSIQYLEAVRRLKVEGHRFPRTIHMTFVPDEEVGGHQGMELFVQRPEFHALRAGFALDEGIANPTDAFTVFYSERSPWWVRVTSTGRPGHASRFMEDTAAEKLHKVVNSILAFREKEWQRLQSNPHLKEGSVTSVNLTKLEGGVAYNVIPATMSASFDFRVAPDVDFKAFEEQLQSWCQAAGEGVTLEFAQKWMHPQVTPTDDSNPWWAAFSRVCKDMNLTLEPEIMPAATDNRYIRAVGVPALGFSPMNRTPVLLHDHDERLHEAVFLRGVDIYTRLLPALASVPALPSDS
UniProt P78325: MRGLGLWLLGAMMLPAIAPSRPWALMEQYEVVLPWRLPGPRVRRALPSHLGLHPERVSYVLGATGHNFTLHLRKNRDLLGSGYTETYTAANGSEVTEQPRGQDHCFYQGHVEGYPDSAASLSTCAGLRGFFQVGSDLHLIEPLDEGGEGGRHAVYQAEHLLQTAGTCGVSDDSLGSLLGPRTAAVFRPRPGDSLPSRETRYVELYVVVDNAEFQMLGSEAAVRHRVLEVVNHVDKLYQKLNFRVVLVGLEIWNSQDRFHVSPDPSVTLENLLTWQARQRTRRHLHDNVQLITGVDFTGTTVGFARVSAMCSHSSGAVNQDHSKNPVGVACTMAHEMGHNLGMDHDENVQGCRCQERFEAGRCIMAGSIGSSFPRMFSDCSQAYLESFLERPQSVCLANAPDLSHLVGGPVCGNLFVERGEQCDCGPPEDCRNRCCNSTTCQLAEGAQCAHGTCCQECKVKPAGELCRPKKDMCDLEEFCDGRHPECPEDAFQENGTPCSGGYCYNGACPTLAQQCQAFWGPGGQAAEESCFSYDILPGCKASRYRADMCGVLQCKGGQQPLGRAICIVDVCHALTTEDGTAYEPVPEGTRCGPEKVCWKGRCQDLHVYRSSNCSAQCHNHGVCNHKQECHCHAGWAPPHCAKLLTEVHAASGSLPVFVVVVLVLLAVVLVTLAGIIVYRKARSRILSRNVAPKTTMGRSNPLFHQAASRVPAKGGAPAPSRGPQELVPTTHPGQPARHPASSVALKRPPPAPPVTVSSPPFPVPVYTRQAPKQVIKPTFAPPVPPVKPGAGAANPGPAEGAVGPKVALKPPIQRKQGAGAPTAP

Experiments:
Test in all cases: log2 fold change, soluble protein after heating vs DMSO (PISA); higher = thermal stabilisation; K562 cells, 10 uM, 30 min; active = over 0.2 and 3.5 SD of the protein, either way, in both replicates (recomputed)
[1] = compound: COC1=CC=C(C=C1)CN2C=CC3=C2C=C(C=C3)C(=O)NO
Outline: (§1)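 Thermal stability values are relative to control samples and come from duplicates. They are expressed as log2 fold changes. For measurement, K562 cells (2×10^6 cells/mL) received 10 μM compound for 30 min, and aliquots were heated for 3 min over 48°C-58°C, pooled, and extracted at 4°C in PBS with 0.5% NP-40. Soluble protein, the supernatant after 21,000xg for 90 min, was quantified by TMTpro 16plex LC-MS/MS with equalised channel sums.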

filanesib = compound: CON(C)C(=O)N1N=C(c2cc(F)ccc2F)S[C@@]1(CCCN)c1ccccc1 [filanesib]
Outline: as §1

zotarolimus = compound: CO[C@H]1C[C@@H]2CC[C@@H](C)[C@@](O)(O2)C(=O)C(=O)N2CCCC[C@H]2C(=O)O[C@H]([C@H](C)C[C@@H]2CC[C@H](n3cnnn3)[C@H](OC)C2)CC(=O)[C@H](C)/C=C(\C)[C@@H](O)[C@@H](OC)C(=O)[C@H](C)C[C@H](C)/C=C/C=C/C=C/1C [zotarolimus]
Outline: as §1

idasanutlin = compound: COc1cc(C(=O)O)ccc1NC(=O)[C@@H]1N[C@@H](CC(C)(C)C)[C@](C#N)(c2ccc(Cl)cc2F)[C@H]1c1cccc(Cl)c1F [idasanutlin]
Outline: as §1

alisertib = compound: COc1cc(Nc2ncc3c(n2)-c2ccc(Cl)cc2C(c2c(F)cccc2OC)=NC3)ccc1C(=O)O [alisertib]
Outline: as §1

[2] = compound: COc1cc2nc(-c3cc(F)ccc3O)nc(N[C@@H]3CNC[C@H]3C(C)(C)O)c2cc1OC
Outline: as §1

gefitinib = compound: COc1cc2ncnc(Nc3ccc(F)c(Cl)c3)c2cc1OCCCN1CCOCC1 [gefitinib]
Outline: as §1

[3] = compound: COc1cccc2cc(-c3nc([C@H]4CC[C@H](C(=O)O)CC4)n4ncnc(N)c34)[nH]c12
Outline: as §1

lapatinib = compound: CS(=O)(=O)CCNCc1ccc(-c2ccc3ncnc(Nc4ccc(OCc5cccc(F)c5)c(Cl)c4)c3c2)o1 [lapatinib]
Outline: as §1

pictilisib = compound: CS(=O)(=O)N1CCN(Cc2cc3nc(-c4cccc5[nH]ncc45)nc(N4CCOCC4)c3s2)CC1 [pictilisib]
Outline: as §1

Measured: log2 fold change

ACSL3 (UniProt O95573)
inactive: [1] 0.126 | filanesib -0.045 | zotarolimus 0.019 | idasanutlin -0.127 | alisertib 0.026 | [2] 0.046 | gefitinib 0.021 | [3] 0.037 | lapatinib 0 | pictilisib 0.022

ABHD16A (UniProt O95870)
active: [2] 0.347
inactive: [1] 0.051 | filanesib 0.067 | zotarolimus 0.204 | idasanutlin -0.042 | alisertib -0.049 | gefitinib 0.158 | [3] -0.039 | lapatinib 0.235 | pictilisib 0.018

ADAM9 (UniProt Q13443)
inactive: [1] -0.012 | filanesib 0.023 | zotarolimus -0.075 | idasanutlin -0.003 | alisertib -0.017 | [2] 0.111 | gefitinib 0.009 | [3] 0.005 | lapatinib -0.028 | pictilisib 0.09

ABLIM1 (UniProt O14639)
inactive: [1] 0.033 | filanesib 0.24 | zotarolimus -0.117 | idasanutlin -0.163 | alisertib 1.49 | [2] 0.179 | gefitinib 0.035 | [3] 0.033 | lapatinib -0.126 | pictilisib -0.145

AAMDC (UniProt Q9H7C9)
inactive: [1] -0.009 | filanesib -0.029 | zotarolimus 0.02 | idasanutlin -0.069 | alisertib -0.047 | [2] 0.013 | gefitinib -0.033 | [3] 0.033 | lapatinib -0.043 | pictilisib 0.068

ACOX3 (UniProt O15254)
inactive: [1] 0.138 | filanesib 0.042 | zotarolimus -0.037 | idasanutlin 0.074 | alisertib 0.555 | [2] -0.106 | gefitinib 0.116 | [3] 0.144 | lapatinib 0.41

AARSD1 isoform 3 (UniProt Q9BTE6)
active: [1] -0.47
inactive: filanesib -0.013 | zotarolimus 0.012 | idasanutlin 0.076 | alisertib -0.067 | [2] -0.012 | gefitinib 0.083 | [3] -0.081 | lapatinib 0.045 | pictilisib 0.029

ABCF1 (UniProt Q8NE71)
inactive: [1] -0.061 | filanesib 0.224 | zotarolimus 0.025 | idasanutlin 0.076 | alisertib -0.071 | [2] 0.059 | gefitinib -0.027 | [3] -0.1 | lapatinib 0.053 | pictilisib 0.032

ABCD4 (UniProt O14678)
inactive: [1] -0.007 | filanesib -0.111 | zotarolimus -0.069 | idasanutlin -0.188 | alisertib -0.151 | [2] -0.023 | gefitinib -0.016 | [3] 0.048 | lapatinib 0.091

ABCE1 (UniProt P61221)
inactive: [1] 0.128 | filanesib -0.047 | zotarolimus 0.011 | idasanutlin -0.001 | alisertib -0.031 | [2] 0.001 | gefitinib -0.013 | [3] 0.054 | lapatinib -0.026 | pictilisib 0.044

ACADM isoform 2 (UniProt P11310)
inactive: [1] 0.039 | filanesib -0.036 | zotarolimus 0.014 | idasanutlin -0.039 | alisertib -0.055 | [2] 0.039 | gefitinib 0.017 | [3] 0.046 | lapatinib 0.001 | pictilisib 0.029

ADAT3 (UniProt Q96EY9)
inactive: [1] -0.036 | filanesib 0.1 | zotarolimus -0.009 | idasanutlin 0.004 | alisertib -0.219 | [2] 0.088 | gefitinib -0.043 | [3] 0.029 | lapatinib -0.042 | pictilisib 0.175

ABL2 (UniProt P42684)
inactive: [1] 0.05 | filanesib 0.012

ACTL8 (UniProt Q9H568)
inactive: [1] -0.018 | filanesib 0.093 | zotarolimus -0.039 | idasanutlin -0.037 | alisertib -0.017 | [2] 0.022 | gefitinib 0.054 | [3] 0.044 | lapatinib 0.001 | pictilisib -0.141

ABCD1 (UniProt P33897)
inactive: [1] 0.199 | filanesib -0.009 | zotarolimus -0.01 | idasanutlin -0.446

ACIN1 (UniProt Q9UKV3)
inactive: [1] 0.019 | filanesib 0.073 | zotarolimus 0.028 | idasanutlin 0.099 | alisertib -0.082 | [2] -0.062 | gefitinib 0.041 | [3] 0.006 | lapatinib 0.034 | pictilisib 0.03

ACAT1 (UniProt P24752)
inactive: [1] -0.031 | filanesib -0.033 | zotarolimus -0.026 | idasanutlin 0.018 | alisertib -0.12 | [2] 0.007 | gefitinib 0.006 | [3] 0.01 | lapatinib -0.055 | pictilisib -0.022

AASDHPPT (UniProt Q9NRN7)
inactive: [1] -0.067 | filanesib 0.003 | zotarolimus 0.018 | idasanutlin -0.041 | alisertib -0.074 | [2] 0.067 | gefitinib -0.006 | [3] -0.001 | lapatinib -0.032 | pictilisib 0.058

ACTN4 (UniProt O43707)
inactive: [1] 0.014 | filanesib -0.009 | zotarolimus 0.022 | idasanutlin -0.017 | alisertib -0.033 | [2] 0.019 | gefitinib 0.005 | [3] 0.047 | lapatinib -0.048 | pictilisib 0.012

ABHD17A isoform 2 (UniProt Q96GS6)
inactive: [1] -0.194 | filanesib 0.086 | zotarolimus 0.012 | idasanutlin 0.034 | alisertib 0.032 | [2] 0.069 | gefitinib 0.081 | [3] 0.027 | lapatinib -0.038 | pictilisib 0.077

ACO1 (UniProt P21399)
inactive: [1] -0.004 | filanesib -0.035 | zotarolimus 0.004 | idasanutlin -0.033 | alisertib 0.003 | [2] -0.017 | gefitinib -0.005 | [3] 0.05 | lapatinib 0.036 | pictilisib 0.002

ACP1 (UniProt P24666)
inactive: [1] 0.008 | filanesib -0.047 | zotarolimus -0.039 | idasanutlin -0.078 | alisertib 0.029 | [2] 0.056 | gefitinib 0.003 | [3] -0.086 | lapatinib -0.073 | pictilisib -0.062

ACY1 (UniProt Q03154)
inactive: [1] 0.012 | filanesib -0.057 | zotarolimus 0.012 | idasanutlin -0.057 | alisertib -0.047 | [2] 0.043 | gefitinib 0.004 | [3] 0.057 | lapatinib -0.007 | pictilisib 0.09

ACP2 (UniProt P11117)
inactive: [1] -0.034 | filanesib -0.121 | zotarolimus -0.016 | idasanutlin -0.026 | alisertib 0.036 | [2] -0.002 | gefitinib 0.001 | [3] 0.053 | lapatinib 0.038 | pictilisib -0.031

ABCA2 isoform 3 (UniProt Q9BZC7)
inactive: [1] -0.187 | filanesib 0.244

ADAMTSL4 isoform 3 (UniProt Q6UY14)
inactive: [1] -0.089 | filanesib 0.162 | zotarolimus -0.069 | idasanutlin 0.062 | alisertib -0.042 | [2] -0.121 | gefitinib 0.032 | [3] 0.089 | lapatinib 0.088 | pictilisib 0.24

Taken from above (2 entries):
ACP2 (UniProt P11117)
inactive: [1] -0.034 | filanesib -0.121 | zotarolimus -0.016 | idasanutlin -0.026 | alisertib 0.036 | [2] -0.002 | gefitinib 0.001 | [3] 0.053 | lapatinib 0.038 | pictilisib -0.031

ABCA2 isoform 3 (UniProt Q9BZC7)
inactive: [1] -0.187 | filanesib 0.244

(continued)

ACBD3 (UniProt Q9H3P7)
inactive: [1] 0.031 | filanesib 0.024 | zotarolimus 0.022 | idasanutlin -0.151 | alisertib -0.063 | [2] -0.016 | gefitinib 0.104 | [3] 0.012 | lapatinib -0.005 | pictilisib 0.054

ABCC4 (UniProt O15439)
inactive: [1] 0.023 | filanesib 0.067 | zotarolimus -0.029 | idasanutlin -0.021 | alisertib -0.05 | [2] 0.058 | gefitinib 0.021 | [3] 0.062 | lapatinib -0.024 | pictilisib 0.046

ADAM8 (UniProt P78325)
inactive: [1] -0.177

ABITRAM (UniProt Q9NX38)
inactive: [1] 0.06 | filanesib 0.036 | zotarolimus 0.041 | idasanutlin 0.022 | alisertib 0.101 | [2] 0.006 | gefitinib 0.111 | [3] 0.139 | lapatinib 0.021 | pictilisib 0.053
